No constants are given. Whether binding was seen depends on the method and setting. Binding seen in cells or lysates may run through a third protein. Binding can be weak; no strength is given.

Amino acid sequences for entries named in this document (tags omitted). A change or cut given only in a name is not applied to a line headed by its entry. Residues count along the entry.
UniProt Q99J83: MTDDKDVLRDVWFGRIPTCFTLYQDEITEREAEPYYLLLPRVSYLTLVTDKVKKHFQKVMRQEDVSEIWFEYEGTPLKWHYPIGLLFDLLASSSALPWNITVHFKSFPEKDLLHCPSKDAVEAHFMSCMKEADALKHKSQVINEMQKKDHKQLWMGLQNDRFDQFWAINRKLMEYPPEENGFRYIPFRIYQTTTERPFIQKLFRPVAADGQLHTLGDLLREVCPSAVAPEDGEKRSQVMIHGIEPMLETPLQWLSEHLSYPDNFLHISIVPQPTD
UniProt Q07113, residues 36-2483: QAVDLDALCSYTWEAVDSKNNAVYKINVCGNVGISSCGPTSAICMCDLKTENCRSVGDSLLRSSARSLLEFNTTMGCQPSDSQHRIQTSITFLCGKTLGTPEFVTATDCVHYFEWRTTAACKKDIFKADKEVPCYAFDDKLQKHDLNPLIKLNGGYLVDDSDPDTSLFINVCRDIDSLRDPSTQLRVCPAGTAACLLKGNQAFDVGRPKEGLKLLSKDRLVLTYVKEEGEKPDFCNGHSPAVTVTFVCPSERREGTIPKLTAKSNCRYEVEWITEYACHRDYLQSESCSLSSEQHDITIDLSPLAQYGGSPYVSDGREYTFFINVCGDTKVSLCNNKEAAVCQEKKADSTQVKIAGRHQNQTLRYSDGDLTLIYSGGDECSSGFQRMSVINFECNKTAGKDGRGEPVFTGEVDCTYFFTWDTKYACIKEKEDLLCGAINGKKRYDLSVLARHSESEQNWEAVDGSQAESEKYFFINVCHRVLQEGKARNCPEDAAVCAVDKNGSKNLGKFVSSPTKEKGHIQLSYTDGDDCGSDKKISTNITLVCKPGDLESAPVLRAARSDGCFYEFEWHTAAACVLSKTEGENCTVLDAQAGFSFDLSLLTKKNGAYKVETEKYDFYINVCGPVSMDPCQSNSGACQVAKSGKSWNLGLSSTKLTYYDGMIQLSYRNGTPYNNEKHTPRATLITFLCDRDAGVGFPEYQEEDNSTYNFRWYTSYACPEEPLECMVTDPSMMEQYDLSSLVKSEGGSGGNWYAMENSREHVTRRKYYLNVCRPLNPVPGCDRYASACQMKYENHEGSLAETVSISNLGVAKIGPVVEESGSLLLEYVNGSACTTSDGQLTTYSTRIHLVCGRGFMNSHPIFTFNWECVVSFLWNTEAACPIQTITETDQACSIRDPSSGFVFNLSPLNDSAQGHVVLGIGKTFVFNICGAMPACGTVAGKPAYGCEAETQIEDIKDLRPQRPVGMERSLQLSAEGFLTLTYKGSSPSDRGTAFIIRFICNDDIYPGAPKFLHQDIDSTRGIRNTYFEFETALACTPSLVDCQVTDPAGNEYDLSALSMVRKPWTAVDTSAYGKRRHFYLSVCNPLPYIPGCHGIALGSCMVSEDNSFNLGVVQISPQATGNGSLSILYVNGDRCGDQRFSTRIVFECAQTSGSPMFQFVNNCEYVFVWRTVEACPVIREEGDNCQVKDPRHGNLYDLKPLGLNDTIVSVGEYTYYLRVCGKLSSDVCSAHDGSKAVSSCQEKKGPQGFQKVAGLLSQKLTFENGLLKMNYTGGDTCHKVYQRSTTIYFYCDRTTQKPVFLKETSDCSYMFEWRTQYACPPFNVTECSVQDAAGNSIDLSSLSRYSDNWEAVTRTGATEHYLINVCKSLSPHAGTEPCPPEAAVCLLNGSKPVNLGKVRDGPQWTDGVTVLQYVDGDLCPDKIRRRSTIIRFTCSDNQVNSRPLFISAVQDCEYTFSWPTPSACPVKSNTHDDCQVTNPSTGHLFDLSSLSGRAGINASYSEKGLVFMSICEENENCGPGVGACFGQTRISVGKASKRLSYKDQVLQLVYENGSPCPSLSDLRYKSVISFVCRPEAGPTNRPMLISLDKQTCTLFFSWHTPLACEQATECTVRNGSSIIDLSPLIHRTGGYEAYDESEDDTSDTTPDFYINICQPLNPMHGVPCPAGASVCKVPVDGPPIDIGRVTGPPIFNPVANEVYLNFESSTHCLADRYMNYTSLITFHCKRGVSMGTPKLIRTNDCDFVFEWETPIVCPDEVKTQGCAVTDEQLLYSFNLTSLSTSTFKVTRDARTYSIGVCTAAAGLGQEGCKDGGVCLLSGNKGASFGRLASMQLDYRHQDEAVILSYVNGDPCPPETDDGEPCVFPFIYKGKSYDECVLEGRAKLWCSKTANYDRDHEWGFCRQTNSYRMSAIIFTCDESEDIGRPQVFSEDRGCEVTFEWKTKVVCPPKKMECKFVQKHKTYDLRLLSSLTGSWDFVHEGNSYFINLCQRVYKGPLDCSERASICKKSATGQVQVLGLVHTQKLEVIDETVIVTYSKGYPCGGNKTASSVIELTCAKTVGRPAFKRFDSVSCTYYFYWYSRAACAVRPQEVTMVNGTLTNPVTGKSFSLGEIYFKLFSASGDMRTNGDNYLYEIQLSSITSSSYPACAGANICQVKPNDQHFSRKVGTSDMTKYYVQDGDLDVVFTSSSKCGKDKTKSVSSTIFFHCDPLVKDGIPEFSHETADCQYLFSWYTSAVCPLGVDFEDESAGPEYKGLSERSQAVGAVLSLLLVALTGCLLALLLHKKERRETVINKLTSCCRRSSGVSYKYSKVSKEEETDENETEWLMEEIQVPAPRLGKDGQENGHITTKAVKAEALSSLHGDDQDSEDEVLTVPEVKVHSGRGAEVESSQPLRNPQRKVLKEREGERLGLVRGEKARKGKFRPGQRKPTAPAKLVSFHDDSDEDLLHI
UniProt Q61194: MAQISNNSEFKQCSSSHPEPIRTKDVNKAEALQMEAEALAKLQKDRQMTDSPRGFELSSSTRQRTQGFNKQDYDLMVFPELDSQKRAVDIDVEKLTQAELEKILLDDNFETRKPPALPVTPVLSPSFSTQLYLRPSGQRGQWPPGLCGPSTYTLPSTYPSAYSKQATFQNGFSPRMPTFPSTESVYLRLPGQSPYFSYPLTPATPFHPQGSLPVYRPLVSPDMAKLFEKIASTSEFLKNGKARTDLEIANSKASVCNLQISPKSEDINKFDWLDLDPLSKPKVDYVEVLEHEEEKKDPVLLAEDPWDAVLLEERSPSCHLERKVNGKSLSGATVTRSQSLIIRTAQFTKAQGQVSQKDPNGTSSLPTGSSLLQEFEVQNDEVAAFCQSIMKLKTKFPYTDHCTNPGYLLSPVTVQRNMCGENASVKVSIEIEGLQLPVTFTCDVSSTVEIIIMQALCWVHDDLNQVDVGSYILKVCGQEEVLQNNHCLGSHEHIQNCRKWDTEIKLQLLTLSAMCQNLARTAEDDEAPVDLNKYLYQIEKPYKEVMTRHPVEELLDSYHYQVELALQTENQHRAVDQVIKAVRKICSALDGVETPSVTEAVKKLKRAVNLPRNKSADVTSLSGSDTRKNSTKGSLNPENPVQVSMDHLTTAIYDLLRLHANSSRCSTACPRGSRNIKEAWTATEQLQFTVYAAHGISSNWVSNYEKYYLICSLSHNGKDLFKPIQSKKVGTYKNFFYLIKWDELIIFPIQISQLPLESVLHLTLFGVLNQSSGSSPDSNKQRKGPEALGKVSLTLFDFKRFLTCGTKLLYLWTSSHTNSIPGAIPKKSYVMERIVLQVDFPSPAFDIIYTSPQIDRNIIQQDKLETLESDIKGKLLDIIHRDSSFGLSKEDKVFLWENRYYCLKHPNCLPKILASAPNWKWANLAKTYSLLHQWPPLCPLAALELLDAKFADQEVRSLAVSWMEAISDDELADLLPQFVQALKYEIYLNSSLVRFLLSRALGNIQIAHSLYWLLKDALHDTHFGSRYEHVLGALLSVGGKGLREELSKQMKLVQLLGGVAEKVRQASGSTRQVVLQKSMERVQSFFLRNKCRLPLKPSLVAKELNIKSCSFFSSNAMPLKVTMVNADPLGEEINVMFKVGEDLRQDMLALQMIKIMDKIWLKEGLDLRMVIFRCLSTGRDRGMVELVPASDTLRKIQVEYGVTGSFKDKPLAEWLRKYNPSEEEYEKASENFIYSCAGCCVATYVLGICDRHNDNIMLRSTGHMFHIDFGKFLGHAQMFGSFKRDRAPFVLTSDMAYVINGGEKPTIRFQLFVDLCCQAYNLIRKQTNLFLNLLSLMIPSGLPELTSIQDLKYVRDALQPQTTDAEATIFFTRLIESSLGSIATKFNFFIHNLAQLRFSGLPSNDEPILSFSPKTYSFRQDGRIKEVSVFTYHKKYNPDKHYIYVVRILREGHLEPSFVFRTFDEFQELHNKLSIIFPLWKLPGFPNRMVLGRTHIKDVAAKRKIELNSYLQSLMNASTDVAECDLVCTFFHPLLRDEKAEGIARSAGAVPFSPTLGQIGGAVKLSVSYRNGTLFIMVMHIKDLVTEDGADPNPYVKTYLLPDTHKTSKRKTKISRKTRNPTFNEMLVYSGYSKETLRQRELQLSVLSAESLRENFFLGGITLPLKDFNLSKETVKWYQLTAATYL

These results are taken from PMC9015699.

The target of test [1] is wild-type GFP-ATG5 (mouse) (UniProt Q99J83). The test can be described thus: co-IP; GFP-Trap affinity isolates of lysates from GFP, WT GFP-ATG5 and GFP-ATG5 K130R atg5-/- MEFs after 1 h starvation, immunoblotting; lysis buffer 10 mM Tris, 150 mM NaCl, 0.5% Igepal CA-630, pH 7.5, 1 h at 4 °C. (Immunoblotting shows a protein as a band on a membrane.)
The target is the same in test [2]. The test can be described thus: co-IP; GFP pull-downs from atg3-/- MEFs expressing the ATG5 constructs, immunoblotting (Fig. S3C).

As for “IGF2R/CI-M6PR (insulin-like growth factor 2 receptor) (from UniProt Q07113 36-2483)”, the binding entry in test [1] is listed as “binds”.

Turning to “PIK3C2A (phosphatidylinositol-4-phosphate 3-kinase catalytic subunit type 2 alpha) (from UniProt Q61194 1-1686)”, the binding result in test [1] and in test [2] was “binds” throughout.
